The campaign covered roughly 330,000 compounds. About 7,700 (2.3%) were called active. Inconclusive results, whose numbers are uncertain, are shown with a selection of clear calls. Calls follow the shape of the dose curve; as a rule, active = well fitted inhibition curve with a large enough effect; inconclusive = small, poorly fitted or top-dose-only effect, or effect the other way; inactive = flat fitted curve, though single readings scatter. Where the call is inconclusive, the potency comes from a doubtful curve fit.
Experiment: qHTS screen for small molecules that inhibit ELG1-dependent DNA repair in human embryonic kidney (HEK293T) cells expressing luciferase-tagged ELG1; also: nearly all actives have a fitted effect of over 55% in size
Conditions: HEK293T ELG1-luciferase reporter, luminescence, 16 h, DNA damage induced by 5-fluorouridine; activity change, negative = inhibition: at 46.1 µM (top of the series)
Summary of the method: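 Step one: seed 2,000 cells per well. Step two: pin-transfer compound or DMSO alongside 5-fluorouridine. Step three: incubate 16 hr, 37 °C, 5% CO2. Step four: add ONE-Glo, wait 30 min, read luminescence.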
% is scaled to controls: 0 for no effect and ±100 for the full control effect; potency is read from the fitted curve at half-maximal effect.

Structure (SMILES) | activity change, negative = inhibition | Potency
Cc1ccc(C(=O)Nc2nc(-c3ccccn3)cs2)cc1S(=O)(=O)N1CCOCC1 | inactive: -9.88% | –
COc1ccccc1-c1sc2ccccc2c1-c1ccc(C(C)=O)cc1 | – | inconclusive: 16.4 µM [activator, single point]
OC(CNc1nc(-c2cccnc2)nc2ccccc12)c1ccccc1 (centres undefined) | – | active: 11.6 µM
COc1ccc(-c2c(C(F)(F)F)oc3cc(OCC(=O)Nc4ccccc4C(F)(F)F)ccc3c2=O)cc1OC | – | inconclusive: 3.66 µM [inhibitor, full curve]
O=C(/C=C/c1cccc(F)c1)Nc1ccc(S(=O)(=O)N2CCOCC2)cc1 | – | inconclusive: 18.3 µM [inhibitor, partial curve]
CC(=O)Nc1ccc(N2CCN(C(=O)c3cccs3)CC2)cc1 | inactive: 7.9% | –
Cc1cccc(Cl)c1OCCN1CCCC1 | inactive: 18.3% | –
COc1ccc2c(c1)C(=O)N(c1ccc(C)cc1C)C(=O)C2(C)C | inactive: -14% | –
O=C1C2C3C=CC(C3)C2C(=O)N1CCCCCCN1C(=O)C2C3C=CC(C3)C2C1=O (centres undefined) | – | inconclusive: 8.2 µM [activator, partial curve]
CN(C(=O)Cn1nc(C(=O)O)c2ccccc2c1=O)C1(C#N)CCCCC1 | inactive: -3.35% | –
CC(=O)c1ccc(NC(=O)/C(Cl)=C/c2ccccc2)cc1 | – | inconclusive: 18.3 µM [activator, partial curve]
Cc1ccc(C)c(NC(=O)CCN2CC(C)CC(C)C2)c1 (centres undefined) | – | inconclusive: 1.26 µM [activator, single point]
COc1ccc(C(CNC(=S)NCc2ccccc2)N2CCCC2)cc1 (centres undefined) | – | inconclusive: 20.6 µM [activator, partial curve, poor fit]
Nc1ccc(N2CCCCCC2)cc1 | – | inconclusive: 1.16 µM [inhibitor, full curve, poor fit]
N#C/C(=C\c1ccccc1[N+](=O)[O-])C(=O)Nc1ccc(S(N)(=O)=O)cc1 | inactive: -3.57% | –
COc1cc(/C=N/NC(=S)Nc2cccc(Cl)c2C)ccc1OCC(=O)N1CC(C)OC(C)C1 (centres undefined) | – | inconclusive: 20.6 µM [inhibitor, partial curve]
CC(C)(C)n1nnnc1C(c1cccnc1)N1CCN(C(=O)c2ccco2)CC1 (centres undefined) | inactive: 19.7% | –
CN(C)CC/C=C1\c2ccccc2Sc2ccc(Cl)cc21 | inactive: 2.41% | –
COc1cccc(OCc2cc(C(=O)NCCc3cccc(C)n3)no2)c1 | inactive: -2.96% | –
Cc1nc(SCC(=O)Nc2ccc3c(c2)OCCO3)c2oc3ccccc3c2n1 | inactive: 8.73% | –
CC(=O)c1sc(NC(=O)c2ccc(F)c(S(=O)(=O)N3CCOCC3)c2)nc1C | inactive: 23.1% | –
CCCCn1c(N)c(N(Cc2ccccc2OC)C(=O)CSCC(=O)Nc2cccc(C)c2)c(=O)[nH]c1=O | inactive: 1.48% | –
CN(C(=O)CN1C(=O)S/C(=C\c2cccc(Cl)c2)C1=O)C1CCS(=O)(=O)C1 (centres undefined) | inactive: -8% | –

Sorted by SMILES length (falling): some entries from above.
Structure (SMILES) | activity change, negative = inhibition | Potency
CN(C(=O)Cn1nc(C(=O)O)c2ccccc2c1=O)C1(C#N)CCCCC1 | inactive: -3.35% | –
COc1ccccc1-c1sc2ccccc2c1-c1ccc(C(C)=O)cc1 | – | inconclusive: 16.4 µM [activator, single point]
Cc1cccc(Cl)c1OCCN1CCCC1 | inactive: 18.3% | –

Looked up above.
Potency with `O=C1C2C3C=CC(C3)C2C(=O)N1CCCCCCN1C(=O)C2C3C=CC(C3)C2C1=O` (centres undefined) is entered as inconclusive: 8.2 µM [activator, partial curve]
activity change, negative = inhibition with `Cc1cccc(Cl)c1OCCN1CCCC1` is entered as inactive: 18.3%

(continued)

Structure (SMILES) | activity change, negative = inhibition | Potency
COc1cc(/C=C/C(=O)NCCc2ccc(S(N)(=O)=O)cc2)ccc1OCC#N | inactive: 1.21% | –
O=[N+]([O-])c1ccccc1COc1ccc(Cl)c2cccnc12 | – | inconclusive: 2.06 µM [activator, full curve]
CCCCC(=O)NC(c1ccccc1OC)c1ccc2cccnc2c1O (centres undefined) | – | inconclusive: 5.8 µM [inhibitor, single point]
COC(=O)C1=CN(c2ccc(F)cc2)C=C(C(=O)OC)C1c1cccc([N+](=O)[O-])c1 | inactive: -10.7% | –
CC(=O)Nc1ccc(Nc2cc(C)nc3c(-c4ccccc4)cnn23)cc1 | – | inconclusive: 0.82 µM [activator, partial curve]
Cc1cc2oc(=O)cc(CN3CCC(C)CC3)c2cc1C | – | inconclusive: 18.3 µM [activator, partial curve]
OCc1c(Cl)nc2ccccn12 | inactive: 6.58% | –
Cc1ccc(S(=O)(=O)CC(=O)c2ccc(C(C)(C)C)cc2)cc1 | – | inconclusive: 7.31 µM [activator, partial curve, poor fit]
CN1CCN(C(c2cc3cc4c(cc3[nH]c2=O)OCCO4)c2nnnn2C2CCCC2)CC1 (centres undefined) | inactive: 0.478% | –
CC1=NN(c2ccccc2)C(=O)C1N=Nc1ccc(C)cc1 (centres undefined) | inactive: 6.73% | –
COc1cccc(OCCNC(=O)c2cc(OC)c(OC)c(OC)c2)c1 | – | inconclusive: 29.1 µM [inhibitor, single point]
CCCCCCC(=O)Nc1c(O)c2ccccc2[nH]c1=O | – | inconclusive: 13 µM [activator, partial curve]
O=C(NCc1cccs1)c1cc(-c2ccc(O)cc2)on1 | – | inconclusive: 7.3 µM [activator, partial curve]
Cc1ccc(C(=O)N2CC3(C(C)C)CN(C(=O)c4ccc(C)cc4)CC(C(C)C)(C2)C3=O)cc1 | inactive: -6.92% | –
CC(C)Sc1nnc(-c2c[nH]c3ccccc23)n1C | – | inconclusive: 16.4 µM [activator, partial curve]
CCN(CC(=O)Nc1ccc2c(c1)OCCO2)CC(=O)Nc1ccc2c(c1)OCO2 | – | inconclusive: 10.3 µM [inhibitor, partial curve]
c1ccc(-c2ccc(C3=Nn4c(Cn5nnc6ccccc65)nnc4SC3)cc2)cc1 | – | inconclusive: 18.4 µM [inhibitor, single point]
COc1cccc2sc(N(CCN(C)C)C(=O)c3ccc(S(=O)(=O)N4CCCC4)cc3)nc12 | – | inconclusive: 13 µM [activator, single point]
N#CC(C(=O)OC1CCCCC1)c1nc2ccccc2nc1N1CCOCC1 (centres undefined) | – | inconclusive: 29.1 µM [inhibitor, single point]
C=CC[C@H](CC(=O)N(CCO)Cc1ccccc1)C(=O)NC[C@H](OC(=O)[C@@H](CC=C)Cc1ccc(F)cc1)c1ccccc1 | – | active: 14.6 µM
CCC(=O)c1ccc(/C=C/c2nc3ccccc3n2C)o1 | – | inconclusive: 1.64 µM [activator, partial curve]
Cc1nnsc1C(=O)NC1CCCc2c1cnn2-c1cc(F)cc(F)c1 (centres undefined) | – | inconclusive: 6.51 µM [inhibitor, partial curve, poor fit]
CCN(CC)S(=O)(=O)c1cccc(NC(=O)c2cc3ccccc3o2)c1 | – | inconclusive: 20.6 µM [inhibitor, single point]

Structure (SMILES) | activity change, negative = inhibition | Potency
CN(C(=O)c1ccccc1OC1CCN(S(C)(=O)=O)CC1)C1CCOC1 (centres undefined) | – | inconclusive: 16.4 µM [activator, partial curve, poor fit]
Cc1ccc2[nH]c(O)c(N=NC(N)=S)c2c1 | inactive: 23.7% | –
O=C(N/C(=C\c1ccc(Br)cc1)C(=O)N1CCCC1)c1ccccc1F | inactive: 15.9% | –
Cn1cc(C(=O)N/N=C/c2cccs2)c2ccccc21 | – | inconclusive: 14.6 µM [activator, partial curve]
COc1ccc(NC(=O)CC2C(=O)N(c3ccc(F)cc3)C(=S)N2NC(=O)c2ccccc2)cc1 (centres undefined) | inactive: -7.61% | –
O=C(CNC(=O)/C=C/c1ccco1)N=Nc1c(O)[nH]c2ccccc12 | – | inconclusive: 23.1 µM [activator, partial curve, poor fit]
CC(C)CCNCC(O)CON=C1c2ccccc2-c2ccccc21 (centres undefined) | – | inconclusive: 14.6 µM [inhibitor, partial curve, poor fit]
Cc1ccc(C)c(Nc2nc(-c3ccncc3)nc3ccccc23)c1 | – | inconclusive: 29.1 µM [inhibitor, single point]
CNC(=O)CCc1nc(-c2ccc(C(C)(C)C)cc2)no1 | – | inconclusive: 29.1 µM [activator, single point]
CC(C)(C)NC(=O)C(c1ccc(-c2ccccc2)cc1)N(C[C@H]1CC[C@@H]([C@@H]2CC[C@H](CO)O2)O1)C(=O)c1ccc2ccccc2c1 (some centres undefined) | – | inconclusive: 25.9 µM [inhibitor, partial curve]
Nc1nc(SCc2ccc(Cl)cc2)ns1 | – | inconclusive: 11.2 µM [activator, partial curve]
O=C(CN1CCc2cc3c(cc2C1)OCCCO3)Nc1ccc(S(=O)(=O)N2CCCC2)cc1 | – | inconclusive: 23.1 µM [inhibitor, single point]
CCOc1ccc(CNC(=O)C2CCCN(c3nnc(C)c4c(C)n(-c5ccccc5)nc34)C2)cc1 (centres undefined) | – | inconclusive: 16.4 µM [inhibitor, partial curve, poor fit]
CC1Cc2ccccc2N1CC(=O)Nc1ccc(S(=O)(=O)N(C)C)cc1 (centres undefined) | – | inconclusive: 18.3 µM [inhibitor, single point]
O=C1C[C@@H](c2ccc(O)cc2)Oc2cc(O)cc(O)c21 | inactive: 21.4% | –
CN(C)C(=O)N1CCCC(C(=O)NCCc2ccccc2)C1 (centres undefined) | – | inconclusive: 18.4 µM [activator, partial curve]
O=C(CN(c1ccccc1)S(=O)(=O)c1ccccc1)N1CCN(Cc2ccc3c(c2)OCO3)CC1 | – | inconclusive: 23.1 µM [inhibitor, single point]
CCCNC(=O)c1ccc(N2CCC3(CC2)CC(c2ccccc2)=NO3)c(NC(=O)c2cccc(OC)c2)c1 | – | active: 4.61 µM
Cc1nc(N)sc1C(=O)N/N=C/c1cccnc1 | – | inconclusive: 25.9 µM [activator, single point]
CNc1ccc(Br)cc(C(=O)/C=C/c2cccc(OC)c2)c1=O | – | inconclusive: 29.1 µM [inhibitor, single point]
CC(C)C[C@H](NC(=O)c1[nH]cnc1C(=O)Nc1ccc(Cl)cc1)C(=O)OC(C)(C)C | – | inconclusive: 25.9 µM [inhibitor, single point]
CC(=O)Nc1ccc(S(=O)(=O)Nc2nc(CN3CCOCC3)nc3sc4c(c23)CCCC4)cc1 | inactive: -22.8% | –
Cc1c(/C=C/C(=O)c2ccccc2O)cnn1C | – | inconclusive: 4.61 µM [activator, full curve]
